Experimental data: patent publication US8815900B2, “Compounds and compositions for reducing lipid levels” (CVI Pharmaceuticals Limited, priority 2007, dated 2014)

System: Wister male rats under a high fat and high cholesterol diet
Experiment: Lipid lowering and body weight effects of (14R,13S)-CRDL hydrochloride salt in Wister rats
Assay type: in vivo
Details: vs control group
Method: Male Wister rats were used as another animal model to examine the in vivo effects of (14R,13S)-CRDL in plasma lipid levels.
In one experiment, 18 Wister male rats under a high fat and high cholesterol diet were divided into 2 groups. One group was given (14R,13S)-CRDL hydrochloride salt orally at a daily dose of 75 mg/kg by an orogastric tube for 4 weeks, and the control group received daily treatment of equal amount of vehicle (0.1 M sodium phosphate, pH 3.5). Serum lipid levels were measured weekly.
At the end of treatment, Rats were sacrificed and blood and sera were collected to measure several critical parameters for liver function and kidney function. […] Kidney function and blood glucose level were not changed by the treatment (FIG. 11E).
The food intake and body weight gains were measured every week during the 4-week treatment period. […] In the first week, the amount of food consumed was decreased in CRDL-treated group. […] The ability of CRDL to activate AMPK signaling pathway to increase energy expenditure and to reduce fat accumulation likely contributes to this weight reducing effect.

SMILES: COc1cc2c(cc1OC)[C@H]1[C@@H](C)c3ccc(OC)c(OC)c3CN1CC2 [CRDL, 14R,13S-(+)-corydaline]
- food intake (first week of treatment): decreased
- food intake (second week through the rest of treatment): maintained at the level similar to the control group
